Measured values from the supplement of paper PMC7752906.
Where a name gives a salt, the structure may show the parent alone. The list shows a part of the results. Single values are uncertain here, since repeats match poorly.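 Wells held roughly 40 S. mansoni schistosomula, imaged in bright field over time against wells given 0.1% DMSO. The paper defines hits as drugs with a Mahalanobis distance of at least 2.47, three standard deviations above the DMSO control mean. Degeneracy is the proportion of worms classified as opaque.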

These compounds were tested on Schistosoma mansoni schistosomula (assay: degeneracy (percent of somules classified as degenerate/opaque); higher = more parasite degeneration/death; extreme values may be limits of the assay). Details: 10 µM; 72 h.
In the case of `NC(=O)N1c2ccccc2C=Cc2ccccc21` [Carbamazepine], the degeneracy is reported as 0%. With `CN(C)CCN(Cc1cccs1)c1ccccn1` [Methapyrilene] the degeneracy was 2.86%. In the case of `NC(CO)(CO)CO` [Tromethamine], the degeneracy is reported as 100%. With `CC(=O)N[C@@H](CC(=O)N[C@@H](CCC(=O)O)C(=O)O)C(=O)O` [Spaglumic Acid] the degeneracy was 3.03%. Compound `Cc1ccc(S(=O)(=O)NC(=O)NN2CC3CCCC3C2)cc1` (stereo not given) [Gliclazide] has a degeneracy of 18.2%. `CCn1cc(C(=O)O)c(=O)c2cnc(N3CCNCC3)nc21` [Pipemidic Acid] showed a degeneracy of 6.25%. Work on `NCCS(=O)(=O)O` [Taurine] yielded a degeneracy of 5.56%. Compound `O=C(CCCN1CC=C(n2c(=O)[nH]c3ccccc32)CC1)c1ccc(F)cc1` [Droperidol] has a degeneracy of 0%. For `CCN(CC)CCNC(=O)c1cc(S(C)(=O)=O)ccc1OC` [Tiapride], the degeneracy was 4.76%. `C[C@H]1[C@@H](O)O[C@@H]2O[C@@]3(C)CC[C@H]4[C@H](C)CC[C@@H]1[C@@]24OO3` [Artenimol] showed a degeneracy of 6.67%. Work on `CCCCCC(C)N` (stereo not given) [Tuaminoheptane Sulfate] yielded a degeneracy of 12.5%. `CCN(Cc1ccncc1)C(=O)C(CO)c1ccccc1` (stereo not given) [Tropicamide] gave a degeneracy of 12.5%. Work on `OC(CCN1CCCCC1)(c1ccccc1)C1CC2C=CC1C2` (stereo not given) [Biperiden] yielded a degeneracy of 5.45%. Work on `Cc1ncc([N+](=O)[O-])n1CCO` [Metronidazole] yielded a degeneracy of 7.14%. `CN1C2CCCC1CC(NC(=O)c1nn(C)c3ccccc13)C2` (stereo not given) [Granisetron] was tested, and the degeneracy was 5.26%. `CC(C)N1CCN(c2ccc(OCC3COC(Cn4cncn4)(c4ccc(Cl)cc4Cl)O3)cc2)CC1` (stereo not given) [Terconazole] was tested, and the degeneracy was 7.69%. Compound `C=CC[C@@H]1/C=C(\C)C[C@H](C)C[C@H](OC)[C@H]2O[C@@](O)(C(=O)C(=O)N3CCCC[C@H]3C(=O)O[C@H](/C(C)=C/[C@@H]3CC[C@@H](O)[C@H](OC)C3)[C@H](C)[C@@H](O)CC1=O)[C@H](C)C[C@@H]2OC` [Tacrolimus] has a degeneracy of 23.5%. For `COc1ccc2[nH]cc(CCNC(C)=O)c2c1` [Melatonin], the degeneracy was 15.4%. `Cc1ccc(C(=O)c2cc(O)c(O)c([N+](=O)[O-])c2)cc1` [Tolcapone] showed a degeneracy of 3.57%. Work on `NC[C@H]1O[C@H](O[C@H]2[C@H](O[C@@H]3O[C@H](CO)[C@@H](O)[C@H]3O)[C@@H](O)[C@H](N)C[C@@H]2N)[C@H](N)[C@@H](O)[C@@H]1O` [Ribostamycin Sulfate] yielded a degeneracy of 2.13%. Compound `CCCC(=O)Nc1ncnc2c1ncn2[C@@H]1O[C@@H]2COP(=O)(O)O[C@H]2[C@H]1OC(=O)CCC` [Bucladesine] has a degeneracy of 10.3%. In the case of `CC1=CC(=O)NS(=O)(=O)O1` [Acesulfame Potassium], the degeneracy is reported as 15%. `CN1CCCC(n2nc(Cc3ccc(Cl)cc3)c3ccccc3c2=O)CC1` (stereo not given) [azelastine] showed a degeneracy of 4.76%. In the case of `O=C(CNC(=O)c1ccc(Cl)cc1)NO` [Benurestat], the degeneracy is reported as 4.76%. `CN1CCCCC1CCN1c2ccccc2Sc2ccc([S+](C)[O-])cc21` (stereo not given) [Mesoridazine Besylate] gave a degeneracy of 2.22%. `O=C(O[C@H]1CN2CCC1CC2)N1CCc2ccccc2[C@@H]1c1ccccc1` [Solifenacin Succinate] was tested, and the degeneracy was 8.33%. `CO[C@@H]1[C@@H](OC(N)=O)[C@@H](O)[C@H](Oc2ccc3c(O)c(NC(=O)c4ccc(O)c(CC=C(C)C)c4)c(=O)oc3c2C)OC1(C)C` [Novobiocin Sodium] gave a degeneracy of 2.63%. Compound `CC(=O)Oc1cccc(O)c1` [Resorcinol Monoacetate] has a degeneracy of 0%. `CCN1CCN(C(=O)N[C@@H](C(=O)N[C@@H]2C(=O)N3[C@@H]2SC(C)(C)[C@@H]3C(=O)O)c2ccccc2)C(=O)C1=O` [Piperacillin Sodium] gave a degeneracy of 2.63%. `CCN1CCN(C(=O)N[C@@H](C(=O)N[C@@H]2C(=O)N3[C@@H]2SC(C)(C)[C@@H]3C(=O)O)c2ccccc2)C(=O)C1=O` [Piperacillin] was tested, and the degeneracy was 8.11%. `OCCN1CCN(CCCN2c3ccccc3Sc3ccc(Cl)cc32)CC1` [perphenazine] showed a degeneracy of 100%. Compound `CN(C)CCc1c[nH]c2ccc(Cn3cncn3)cc12` [Rizatriptan Benzoate] has a degeneracy of 6.82%. `Nc1ccc(S(=O)(=O)c2ccc(N)cc2)cc1` [Dapsone] showed a degeneracy of 33.3%. In the case of `N=C(N)NCC1COC2(CCCCC2)O1` (stereo not given) [Guanadrel Sulfate], the degeneracy is reported as 4.76%. With `CC1(C)OC(=O)NC1=O` [Dimethadione] the degeneracy was 5.88%. In the case of `Nc1ccc(C(=O)NCC(=O)O)cc1` [Aminohippuric Acid], the degeneracy is reported as 0%. `COc1ccc(NS(=O)(=O)c2ccc(N)cc2)nn1` [Sulfamethoxypyridazine] gave a degeneracy of 17.2%. `CCC[C@H](N[C@@H](C)C(=O)N1[C@H](C(=O)O)C[C@@H]2CCCC[C@@H]21)C(=O)OCC` [Perindopril Erbumine] showed a degeneracy of 10%. Compound `N=C(N)NC(=N)N1CCOCC1` [Moroxydine Hydrochloride] has a degeneracy of 3.7%. Compound `CC(=O)Oc1cccc2c1C(=O)c1c(OC(C)=O)cc(C(=O)O)cc1C2=O` [Diacerin] has a degeneracy of 2.27%. Compound `C=C1C[C@H]2[C@@H]3C=C(C)C4=CC(=O)CC[C@]4(C)[C@H]3CC[C@]2(C)[C@@]1(OC(C)=O)C(C)=O` [Melengestrol Acetate] has a degeneracy of 31%. `CCN(CC)CCc1nc(-c2ccccc2)no1` [Oxolamine Citrate] showed a degeneracy of 15.9%. `CC(C)NC[C@@H](O)COc1cccc2ccccc12` [Dexpropranolol Hydrochloride] was tested, and the degeneracy was 17.1%. `CCc1cn([C@H]2C[C@H](O)[C@@H](CO)O2)c(=O)[nH]c1=O` [Edoxudine] gave a degeneracy of 8.16%. `O=S(=O)(O)NC1CCCCC1` [Cyclamic Acid] gave a degeneracy of 6.67%. Work on `CN(C)[C@@H]1C(O)=C(C(=O)NCN2CCCC2)C(=O)[C@@]2(O)C(O)=C3C(=O)c4c(O)cccc4[C@@](C)(O)[C@H]3C[C@@H]12` [Rolitetracycline] yielded a degeneracy of 3.23%. In the case of `CC(NCCC(c1ccccc1)c1ccccc1)c1ccccc1` (stereo not given) [Fendiline Hydrochloride], the degeneracy is reported as 100%. With `C[C@H](CCC(=O)O)[C@H]1CC[C@H]2[C@@H]3[C@H](O)C[C@@H]4C[C@H](O)CC[C@]4(C)[C@H]3CC[C@]12C` [Chenodiol] the degeneracy was 19.2%. With `NCC(O)CC(=O)O` (stereo not given) [Aminohydroxybutyric Acid] the degeneracy was 5.13%. `CC(=O)OCC(CCn1cnc2cnc(N)nc21)COC(C)=O` [Famciclovir] was tested, and the degeneracy was 8.11%. Work on `COc1c2occc2c(OC)c2c(=O)cc(C)oc12` [Khellin] yielded a degeneracy of 5.56%. Work on `O=c1oc2ccccc2c(O)c1Cc1c(O)c2ccccc2oc1=O` [Dicumarol] yielded a degeneracy of 10%. `COc1ccc(C2CNC(=O)C2)cc1OC1CCCC1` (stereo not given) [Rolipram] showed a degeneracy of 0%. With `NC(=O)c1ccc([N+](=O)[O-])cc1Cl` [Aklomide] the degeneracy was 4%. Work on `CC(C)[C@H](N)C(=O)OCC(CO)OCn1cnc2c(=O)nc(N)[nH]c21` (stereo not given in full) [Valganciclovir Hydrochloride] yielded a degeneracy of 12.1%. Compound `Cc1c(O)c(=O)ccn1C` [Deferiprone] has a degeneracy of 0%. `CCC(=O)O[C@]1(C(=O)CCl)[C@@H](C)C[C@H]2[C@@H]3CCC4=CC(=O)C=C[C@]4(C)[C@@]3(F)[C@@H](O)C[C@@]21C` [Clobetasol Propionate] showed a degeneracy of 13.2%. With `CC(C)NCC(O)c1ccc2ccccc2c1` (stereo not given) [Pronetalol Hydrochloride] the degeneracy was 8.16%. Compound `CC(=O)O[C@]1(C(C)=O)CC[C@H]2[C@@H]3C[C@H](C)C4=CC(=O)CC[C@]4(C)[C@H]3CC[C@@]21C` [Medroxyprogesterone Acetate] has a degeneracy of 6.67%. Compound `CN(C)c1nc(N(C)C)nc(N(C)C)n1` [Altretamine] has a degeneracy of 2.7%. `CCCNCC(O)COc1ccccc1C(=O)CCc1ccccc1` (stereo not given) [Propafenone] showed a degeneracy of 100%. With `C[C@H]1C[C@@H]2[C@H]([C@@H](O)C[C@@]3(C)[C@H]2CC[C@]3(O)C(=O)CO)[C@@]2(C)C=CC(=O)C=C12` [Methylprednisolone] the degeneracy was 12%. `CC(=O)OC1CC2CCC1(C)C2(C)C` (stereo not given) [Bornyl Acetate] showed a degeneracy of 100%. `O=c1cc[nH]c(=S)[nH]1` [2-thiouracil] was tested, and the degeneracy was 3.7%. For `CCC(=O)c1c(O)cc(O)cc1O` [Flopropione], the degeneracy was 0%. `Nc1ccc(S(=O)(=O)Nc2ccnn2-c2ccccc2)cc1` [Sulfaphenazole] showed a degeneracy of 0%. `CNCC(O)c1cccc(O)c1` [L-phenylephrine] gave a degeneracy of 8.57%. `CO/N=C(\C(=O)N[C@@H]1C(=O)N2C(C(=O)O)=C(COC(N)=O)CS[C@H]12)c1ccco1` [Cefuroxime] gave a degeneracy of 0%. `CCCCCCCCCCCCCCCC(=O)O[C@@H]1[C@@H](O)[C@@H](O)[C@@H]([C@H](NC(=O)[C@@H]2C[C@@H](CCC)CN2C)[C@H](C)Cl)O[C@@H]1SC` [Clindamycin Palmitate Hydrochloride] was tested, and the degeneracy was 0%. Work on `CC(=O)Nc1ncc([N+](=O)[O-])s1` [Nithiamide] yielded a degeneracy of 8.33%. In the case of `CC(C)C[C@@H]1NC(=O)[C@H](CCCN)NC(=O)[C@H](C(C)C)NC(=O)[C@H](Cc2ccc(O)cc2)N[C@@H](CCC(=O)O)C(=O)N[C@@H](CC(N)=O)C(=O)[C@@H](Cc2ccccc2)NC(=O)[C@H](Cc2ccccc2)NC(=O)[C@@H]2CCCN2C(=O)[C@@H](Cc2ccccc2)NC1=O` [Tyrothricin], the degeneracy is reported as 0%. `Nc1ccc2cc3ccc(N)cc3nc2c1` [Proflavine Hemisulfate] gave a degeneracy of 100%. Compound `CC1(C)O[C@@H]2C[C@H]3[C@@H]4CCC5=CC(=O)C=C[C@]5(C)[C@@]4(F)[C@@H](O)C[C@]3(C)[C@]2(C(=O)CO)O1` [Triamcinolone Acetonide] has a degeneracy of 0%. With `C[C@@H]1C[C@H]2[C@@H]3CCC4=CC(=O)C=C[C@]4(C)[C@@]3(F)[C@@H](O)C[C@]2(C)[C@@]1(O)C(=O)CO` [Dexamethasone] the degeneracy was 8%. Work on `O=C(O)COC(=O)Cc1ccccc1Nc1c(Cl)cccc1Cl` [Aceclofenac] yielded a degeneracy of 0%. `CCN1CCN(c2cc3c(cc2F)c(=O)c(C(=O)O)cn3C2CC2)CC1` [Enrofloxacin] showed a degeneracy of 0%. `O=C1C2CC3CC1CC(O)(C3)C2` [Idramantone] gave a degeneracy of 7.69%. `C1CCN2C[C@@H]3C[C@@H](CN4CCCC[C@@H]34)[C@H]2C1` [Sparteine Sulfate] was tested, and the degeneracy was 20.7%. Compound `C=C1/C(=C\C=C2/CCC[C@]3(C)[C@@H]([C@H](C)/C=C/[C@@H](O)C4CC4)CC[C@@H]23)C[C@@H](O)C[C@@H]1O` [Calcipotriene] has a degeneracy of 16%. For `Cc1ccc(Cl)c(Nc2ccccc2C(=O)O)c1Cl` [Meclofenamic Acid], the degeneracy was 3.03%. `CC1=Nc2ccc(Cl)cc2S(=O)(=O)N1` [Diazoxide] showed a degeneracy of 11.8%. `C[C@H]1C[C@H]2[C@@H]3CCC4=CC(=O)C=C[C@]4(C)[C@@]3(F)[C@@H](O)C[C@]2(C)[C@@]1(O)C(=O)CO` [betamethasone] gave a degeneracy of 19.4%. With `CCn1nc(C(=O)O)c(=O)c2cc3c(cc21)OCO3` [Cinoxacin] the degeneracy was 2.63%. `Cc1cc(/C=C/c2ccc3cc(N(C)C)ccc3[n+]2C)c(C)n1-c1ccccc1` [Pyrvinium Pamoate] was tested, and the degeneracy was 100%. For `COCCOC(=O)C1=C(C)NC(C)=C(C(=O)OC/C=C/c2ccccc2)C1c1cccc([N+](=O)[O-])c1` (stereo not given) [Cilnidipine], the degeneracy was 25%.
